Screen size: about 320,000 compounds; about 2,100 (0.66%) were called active. Inconclusive means that the source gave no clear call. Such entries were picked first, then a sample of the others. The call rests on the fitted dose curve; in most records, active means well fitted inhibition curve with a large enough effect in the signal ratio, with a control signal flat (not every such curve was filed as active); inconclusive means small, poorly fitted or top-dose-only effect, or effect the other way, or a change in a side signal; inactive means flat fitted curve, though single readings scatter; the % refers to the signal ratio. A potency beside an inconclusive call is a rough fit, not a confirmed value.
assay: qHTS Assay for Lipid Storage Modulators in Drosophila S3 Cells; conditions: BODIPY lipid droplet fluorescence, 18-24 h, cells fed with added oleic acid; lipid storage change, negative = inhibition: at 46.1 µM (top of the series) unless noted
Method in brief: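 Drosophila S3 cells loaded with oleic acid (400 uM, as added) and compounds at several concentrations; lipid droplets imaged by 488-nm laser-scanning cytometry, 500–530 nm intensity and object ratio to cell channel. Percent activity normalized to 20 uM Triacsin C.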
On the % scale 0 is the no-effect control and ±100 the full control effect; potency means the concentration at half of the fitted maximal effect.

Compound | lipid storage change, negative = inhibition | Potency
COc1cc(C(=O)Nc2ccc(NC(=O)c3ccccc3)nc2)cc(OC)c1OC | inconclusive: -100% | –
O=C(c1cc2cc(Cl)ccc2[nH]1)N1CCN(c2ccccn2)CC1 | inconclusive: 34.2% | –
CN(CC(=O)N1CCN(Cc2ccccc2)CC1)S(=O)(=O)c1ccc(Br)cc1 | – | inconclusive: 29.1 µM [falling, single point]
CC1(C)c2ssc(=S)c2-c2ccccc2N1C(=O)c1ccco1 | – | active: 8.2 µM
O=C(CSc1nc2ccccc2[nH]1)c1ccccc1F | inconclusive: 91.6% | –
CC(C)OCC(O)Cn1c(N2CCCC2)nc2c1c(=O)n(C)c(=O)n2C (configuration not stated) | – | inconclusive: 32.6 µM [falling, single point]
CCC12CN(C(=O)c3ccco3)CC(CC)(CN(C(=O)c3ccco3)C1)C2=O | inconclusive: -44.1% | –
C=CCn1c(CC#N)nnc1N1CCOCC1 | inconclusive: -87.4% | –
Cc1cc(C)c(CN2CCC(N3CCC(C(=O)NCC4CCCO4)CC3)CC2)cc1C (configuration not stated) | inactive | –
COc1cc(NC(=O)CN2C(=O)NC3(CCOc4ccccc43)C2=O)cc(OC)c1 (configuration not stated) | inconclusive: 0.171% | –
CC(=O)Nc1ccc(C(=O)Nc2ccc(S(=O)(=O)N3CCCCC3)cc2)cc1 | inconclusive: -15.1% | –
CCCc1sc(N2CCCC(C(N)=O)C2)nc1-c1ccccc1 (configuration not stated) | inconclusive: 1.86% | –
NS(=O)(=O)c1ccc(CCNS(=O)(=O)c2ccccc2)cc1 | inconclusive: 16.5% [at 9.22 µM] | –
O=C(CN1C(=O)NC2(CCCCCC2)C1=O)NCc1ccco1 | – | inconclusive: 6.51 µM [cytotoxic, single point]
CCN1CCn2c1nc(N1CCOCC1)nc2=O | – | inconclusive: 25.9 µM [falling, partial curve, poor fit]
CCSc1cnc(-c2ccccc2)n1CC | – | inconclusive: 6.51 µM [falling, single point]
CCN(CCNC(=O)CC1Oc2ccccc2NC1=O)c1ccccc1 (configuration not stated) | inconclusive: -48.3% | –
O=C(CCC(=O)OCC(=O)c1ccc(C(F)(F)F)cc1)OCC(=O)c1ccc(C(F)(F)F)cc1 | inconclusive: -11.8% | –
O=C1c2cccnc2C(=O)N1c1cccc([N+](=O)[O-])c1 | inconclusive: 38.2% | –
Cc1ccc(NS(=O)(=O)c2ccc3c(c2)oc(=O)n3C)cc1F | – | inconclusive: 2.31 µM [activator, partial curve]
COc1ccc(Nc2sc(C(=O)c3ccc(Cl)cc3)c(N)c2C(=O)Nc2ccccc2OC)cc1 | inconclusive: -129% | –
CC1Cc2ccccc2N1C(=O)CCn1c(=O)sc2ccccc21 (configuration not stated) | inconclusive: 13% | –
COc1cc(NC(=O)CSc2nnc3ccccn23)cc(OC)c1 | inconclusive: 82.4% | –
CC1CCCN(C(=O)CSc2nc3ncccc3[nH]2)C1 (configuration not stated) | inconclusive: -23.5% | –
CC(NC(=O)CSc1nc2ccccc2c(=O)n1CCCO)c1ccccc1 (configuration not stated) | – | inconclusive: 0.366 µM [activator, full curve, poor fit]
O=C(NNC(=O)c1ccco1)c1ccc(NS(=O)(=O)c2cccs2)cc1 | inconclusive: 5.23% | –

Compound | lipid storage change, negative = inhibition | Potency
O=C(Nc1ccccc1)C1CCN(C(=O)c2ccc(Br)cc2)CC1 | – | inconclusive: 11.6 µM [falling, single point]
C1CCc2c(nc3nnnn3c2NC2CCCC2)C1 | inconclusive: 30.1% | –
CCOCCCNCC(=O)Nc1ccc(S(=O)(=O)NC(C)CC)cc1 (configuration not stated) | – | inconclusive: 1.16 µM [falling, full curve, poor fit]
CCc1cc(C(=O)O)c(NC(=O)/C=C/c2ccc(OC)c(OC)c2)s1 | – | inconclusive: 7.31 µM [falling, single point]
Cc1ccc(NC(=O)C2CCN(S(=O)(=O)c3cccnc3)CC2)cc1C | inconclusive: -8.61% | –
Cc1ccc(CN(Cc2cc3cccc(C)c3[nH]c2=O)C(=O)N(C)C)cc1 | – | inconclusive: 1.64 µM [activator, partial curve]
CCN(C(=O)COc1cc(=O)n(CC)c2ccccc12)c1cc(Cl)ccc1OC | – | inconclusive: 0.116 µM [activator, full curve, poor fit]
Cc1nc(C)c(-c2ccc(SCC(=O)Nc3ccccc3)nn2)s1 | inconclusive: 27.5% | –
C=CCn1c(COc2ccccc2F)nnc1SCC(=O)N1CC(=O)Nc2ccccc21 | – | inconclusive: 2.06 µM [rising, partial curve]
Cc1ccc(OCC(=O)NC2=NCCS2)cc1 | – | inconclusive: 20.6 µM [falling, single point]
O=C(NNC(=O)c1cccs1)c1ccc(S(=O)(=O)N2CCCCC2)cc1 | inconclusive: -17.8% | –
Cc1ccc(Nc2nc(C(=O)NCCCN3CCOCC3)cs2)cc1 | – | inconclusive: 32.6 µM [activator, single point]
COc1ccc(CCN2CC(C(=O)OCC(=O)N(C)Cc3ccccc3)CC2=O)cc1OC (configuration not stated) | – | inconclusive: 20.6 µM [activator, single point]
O=C(N/N=C/c1cccc(O)c1)c1ccc(COc2cccc3cccnc23)cc1 | – | inconclusive: 2.31 µM [activator, single point]
C/C(CC(=O)Nc1ccccc1C#N)=N\NC(=O)c1ccncc1 | – | inconclusive: 0.461 µM [falling, full curve]
Cc1ccccc1OCCCC(=O)Nc1nccs1 | inconclusive: 12.3% | –
O=C(c1ccc(Cl)cc1)[C@@H]1[C@@H]2C(=O)N(c3cccc4ccccc34)C(=O)[C@@H]2C2c3ccccc3C=NN21 (some centres not stated) | – | inconclusive: 18.4 µM [activator, single point]
O=C(NCCc1ccc(F)cc1)c1ccc(Cl)c(S(=O)(=O)N2CCOCC2)c1 | inconclusive: -6.95% | –
COc1ccccc1CNC(=O)C(NC(=O)c1ccccc1C)C(C)C (configuration not stated) | inconclusive: -7.93% | –
FC(F)(F)c1cc(-c2ccco2)nc(N2CCOCC2)n1 | – | inconclusive: 2.06 µM [activator, partial curve]
CCOc1ccc(Cl)cc1S(=O)(=O)N1CCC(C(=O)NC2CC2)CC1 | inconclusive: -32.2% | –
COc1cc(-c2cc(C(=O)Nc3cccc(S(=O)(=O)N(C)C)c3)c3ccccc3n2)cc(OC)c1OC | inconclusive: 1.9% | –
O=C(O)COc1ccc(NC(=O)c2ccc3c(c2)C(=O)N(C2CCCCC2)C3=O)cc1 | – | inconclusive: 18.4 µM [falling, single point]
Cc1ccc(S(=O)(=O)N2CCN(Cc3cc(C(C)C)ccc3O)CC2)cc1 | – | inconclusive: 32.6 µM [cytotoxic, single point]
c1ccc(-c2csc3ncnc(NCCCN4CCOCC4)c23)cc1 | inconclusive: -17% | –
COc1ccc(CN(C(=O)CN2C(=O)NC3(CCC(C)CC3)C2=O)C(C)Cc2cccs2)cc1 (configuration not stated) | – | inconclusive: 16.4 µM [falling, single point]

Record cards, from the list above.
Cc1ccccc1OCCCC(=O)Nc1nccs1 is listed with lipid storage change, negative = inhibition: inconclusive: 12.3%
Cc1ccc(S(=O)(=O)N2CCN(Cc3cc(C(C)C)ccc3O)CC2)cc1 is listed with Potency: inconclusive: 32.6 µM [cytotoxic, single point]
CCOCCCNCC(=O)Nc1ccc(S(=O)(=O)NC(C)CC)cc1 (configuration not stated) is listed with Potency: inconclusive: 1.16 µM [falling, full curve, poor fit]
CCN(C(=O)COc1cc(=O)n(CC)c2ccccc12)c1cc(Cl)ccc1OC is listed with Potency: inconclusive: 0.116 µM [activator, full curve, poor fit]

Following part.

Compound | lipid storage change, negative = inhibition | Potency
CCc1ccc(N2CC(C(=O)Nc3nccs3)CC2=O)cc1 (configuration not stated) | inactive | –
O=C(Nc1nnc(C2CC2)s1)c1cc2ccccc2o1 | inconclusive | –
CCC(=O)N1CCN=C1SCc1ccccc1Cl | inconclusive: -30.6% | –
C=CCn1c(=O)c2c(nc3n2CCCN3CCc2ccc(OC)c(OC)c2)n(C)c1=O | inconclusive: 15.8% | –
O=C(NCC1CCCO1)c1ccc2c(=O)n(CC3CCCO3)c(=S)[nH]c2c1 (configuration not stated) | – | inconclusive: 2.06 µM [activator, partial curve]
CCOC(=O)CCSCC(=O)Nc1cc(C)on1 | inconclusive: -28.7% | –
Cn1c2ccccc2c(=O)c2c(=O)n(Cc3ccccc3)c(-c3ccc(F)cc3)nc21 | inconclusive: 19.9% | –
O=C(CSc1ncn[nH]1)Nc1ccc(Cl)c(Cl)c1 | inconclusive: 40.4% | –
O=C(OCc1ccc(Br)cc1)c1cccc(-c2nnc(-c3ccccc3)o2)c1 | inconclusive: 0.207% | –
COc1ccc(/C=C(\NC(=O)c2cccs2)C(=O)N2CCOCC2)cc1OC | – | inconclusive: 0.0046 µM [rising, full curve, poor fit]
CS(=O)(=O)N1CCN(c2nc(-c3ccccc3)cs2)CC1 | inconclusive: 71.6% | –
COc1ccc(-n2c(SCC(N)=O)nc3sc4c(c3c2=O)CCC4)cc1 | inconclusive: -9.01% | –
CC(=O)Nc1ccc(SCC(=O)Nc2ccc(Cl)cn2)cc1 | inconclusive: -4.09% | –
Cc1[nH]c2ccccc2c1C(=O)CSc1ccc(F)cc1 | inconclusive: 29.7% | –
Cn1c(C(O)c2ccccc2F)nc(Cl)c1Cl (configuration not stated) | inconclusive: -19.5% | –
N/C(Cc1cccs1)=N\OC(=O)COc1ccc(Br)cc1Cl | inconclusive: 2.43% | –
Cc1ccccc1-c1nnc(SCC(=O)Nc2cccc(C)c2C)o1 | – | inconclusive: 0.58 µM [rising, partial curve]
Cc1c(C#N)c(NC(=O)CCl)n(Cc2cccs2)c1C | inconclusive: -18.5% | –
O=C(CC(Nc1ccccc1)c1ccccc1)C1CC1 (configuration not stated) | inconclusive: 7.11% | –
COc1ccc(CC(=O)OCC(=O)N2CCN(S(=O)(=O)c3ccc(C)cc3C)CC2)cc1OC | inconclusive | –
Cc1ccc(-c2csc(NC(=O)CN3C(=O)CCC3=O)n2)cc1 | inconclusive: -19.8% | –
CCCNc1nc2c(c(=O)n(C)c(=O)n2C)n1CCc1ccccc1 | inconclusive: -38.8% | –
CCOC(=O)C1=C(C)NC(=O)C(C(N)=O)C1c1ccccc1 (configuration not stated) | inconclusive: -2.92% | –
Cc1ccc(Oc2ncnc3sccc23)cc1 | inconclusive: -15.2% | –
CC(=O)NC(Cc1ccccc1F)C(=O)NC1CCN(c2ncccc2[N+](=O)[O-])CC1 (configuration not stated) | inconclusive: 17.2% | –

Source: PubChem BioAssay AID2685 (National Center for Advancing Translational Sciences (NCATS), 2010)
